Literature values, collected in patent US9550775B2, “Substituted triazolopyridines and methods of use thereof” (GENENTECH, INC., priority 2013, dated 2017).

Settings: administered topically (Lidoderm patch); cited from earlier work

For `CCN(CC)CC(=O)Nc1c(C)cccc1C` [lidocaine], the plasma concentrations is listed as “about 1 μM”.
